Test results: paper PMC11605992
No constants are given. Whether binding was seen depends on the method and setting. Binding seen in cells or lysates may run through a third protein. Some entries that bind do so weakly or less than the wild type.

Chains of the proteins cited; added tags and fusions are not shown.
UniProt P18850: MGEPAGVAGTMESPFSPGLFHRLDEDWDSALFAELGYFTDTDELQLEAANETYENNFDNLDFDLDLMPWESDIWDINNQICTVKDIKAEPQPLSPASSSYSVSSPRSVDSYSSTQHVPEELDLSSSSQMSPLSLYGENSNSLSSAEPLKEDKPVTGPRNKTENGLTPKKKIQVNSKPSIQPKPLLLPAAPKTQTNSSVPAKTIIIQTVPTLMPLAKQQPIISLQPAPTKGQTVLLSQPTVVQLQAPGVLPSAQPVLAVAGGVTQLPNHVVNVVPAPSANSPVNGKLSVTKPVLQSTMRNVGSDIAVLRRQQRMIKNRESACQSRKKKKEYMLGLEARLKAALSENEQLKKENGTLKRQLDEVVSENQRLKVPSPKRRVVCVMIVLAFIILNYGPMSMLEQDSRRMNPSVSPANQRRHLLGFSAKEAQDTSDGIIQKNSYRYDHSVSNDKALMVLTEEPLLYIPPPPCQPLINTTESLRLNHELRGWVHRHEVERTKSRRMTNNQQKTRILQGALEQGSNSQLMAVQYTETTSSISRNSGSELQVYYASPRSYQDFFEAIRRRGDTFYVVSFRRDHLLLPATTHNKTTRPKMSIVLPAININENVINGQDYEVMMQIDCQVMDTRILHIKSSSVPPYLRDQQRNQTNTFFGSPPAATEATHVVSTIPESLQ

How the values were obtained:
[1] = molecular target: ATF6 (human (endogenous in CD4+ T cells)) (UniProt P18850); assay: co-IP; PBMCs of healthy controls treated with tunicamycin (5 µg/ml, 1 h), CD4+ T cells sorted, lysate; resin coupled with ATF6 or MIF antibody, IgG as negative control; 4 °C overnight; Western blot
[2] = molecular target: ATF6 (human (endogenous in CD4+ T cells)) (UniProt P18850); assay: co-IP; lysate of CD4+ T cells of active RA patients; resin coupled with ATF6 antibody, IgG as negative control; 4 °C overnight; Western blot
[3] = molecular target: ATF6 (human (endogenous in CD4+ T cells)) (UniProt P18850); assay: condition: only cells of healthy controls not treated with tunicamycin; co-IP; PBMCs of healthy controls not treated with tunicamycin, CD4+ T cells sorted, lysate; resin coupled with ATF6 or MIF antibody, IgG as negative control; 4 °C overnight; Western blot

B1: macrophage migration inhibitory factor (protein, UniProt P14174 1-115)
chain: MPMFIVNTNVPRASVPDGFLSELTQQLAQATGKPPQYIAVHVVPDQLMAFGGSSEPCALCSLHSIGKIGGAQNRSYSKLLCGLLAERLRISPDRVYINYYDMNAANVGWNNSTFA
For B1, the binding [1] was “binds”, the binding [2] was “binds” and the binding [3] was “no binding”.
